{"source": "paper PMC5186766", "binders": {"B1": {"name": "DDX3, endogenous in rabbit reticulocyte lysate (protein, UniProt G1T336 1-662)", "chain": "MSHVAVENALGLDQQFAGLDLNSSDNQTGGSTASKGRYIPPHLRNREATKGFYDKDSSGWSSSKDKDAYSSFGSRGDSRGKSSFFSDRGSGSRGRFDDRGRGDYDGIGSRGDRSGFGKFERGGNSRWCDKSDEDDWSKPLPPSERLEQELFSGGNTGINFEKYDDIPVEATGNNCPPHIESFSDVEMGEIIMGNIELTRYTRPTPVQKHAIPIIKEKRDLMACAQTGSGKTAAFLLPILSQIYSDGPGEALRAMKENGRYGRRKQYPISLVLAPTRELAVQIYEEARKFSYRSRVRPCVVYGGADIGQQIRDLERGCHLLVATPGRLVDMMERGKIGLDFCKYLVLDEADRMLDMGFEPQIRRIVEQDTMPPKGVRHTMMFSATFPKEIQMLARDFLDEYIFLAVGRVGSTSENITQKVVWVEESDKRSFLLDLLNATGKDSLTLVFVETKKGADSLEDFLYHEGYACTSIHGDRSQRDREEALHQFRSGKSPILVATAVAARGLDISNVKHVINFDLPSDIEEYVHRIGRTGRVGNLGLATSFFNERNVNITKDLLDLLVEAKQEVPSWLENMAYEHHYKGSSRGRSKSSRFSGGFGARDYRQSSGASSSSFSSSRASSSRSGGGGHGGSRGFGGGGYGGFYNSDGYGGNYNSQGVDWWGN"}}, "target": "GST.pVIII fusion protein (BAdV-3 pVIII) (bovine adenovirus 3 (BAdV-3))", "test": "pull-down; 10 μl Flexi rabbit reticulocyte lysate incubated at 4°C with 10 μl GST beads holding 750 ng GST or GST.pVIII, centrifuged; pellet and supernatant blotted; only the target purified", "note": "No constants are given. Whether binding was seen depends on the method and setting. Binding seen in cells or lysates may run through a third protein. Binding can be weak; no strength is given.", "data": [{"binder": "B1", "values": [{"measurement": "binding", "result": "binds"}]}]}
